Taken from: PubChem BioAssay AID743454 (Peter MacCallum Cancer Centre, 2014)
Shown is an unselected part of about 18,000 reagents. In the full data, 450 (2.5%) got an active call. 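Single biological run; no consistent viability z cut-off exists, so the class columns, not z-scores, define the calls.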 The numbers tell different reagents against one gene apart.

Assay: 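Genes whose loss kills vorinostat-resistant colon cancer cells under vorinostat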 (primary screen)
Cells: human HCT116-VR colon cancer cells, selected for vorinostat resistance
Reagent: siRNA pool against human genes, 40 nM siRNA pool
Timing: vorinostat for 24 h, read-out about 72 h after transfection
Challenge: vorinostat at 2.5 µM final
Detection: 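Two measures, CellTiter-Fluor viability and luminescent caspase 3/7 activity, each as fold change against same-plate mock wells, mean of duplicates, then screen-wide robust z-score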
Direction: viability robust z-score: higher = more viable cells than screen typical; caspase robust z-score: higher = more caspase 3/7 activity than screen typical
Hit rule: 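Hits are knock-downs in viability class RV1/RV2 or caspase class CA1/CA2, excluding ones that killed cells in the no-drug cell-count arm; hits then retested with single siRNAs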

| gene | reagent | viability hit class | caspase hit class | viability robust z-score | caspase robust z-score | call |
| --- | --- | --- | --- | --- | --- | --- |
| CYP26C1 | 1 | no change | no change | 0.32 | 0.37 | inactive |
| CNOT2 | 1 | no change | no change | -0.78 | 2.42 | inactive |
| EXD2 | 1 | no change | no change | 1.42 | 0.06 | inactive |
| SLC12A3 | 1 | no change | no change | 0.84 | -0.64 | inactive |
| MTMR1 | 1 | no change | no change | 0.62 | 1.88 | inactive |
| NPHS2 | 1 | no change | no change | -0.04 | 0.94 | inactive |
| C9orf153 | 1 | no change | no change | 1.73 | -0.03 | inactive |
| SCML1 | 1 | no change | no change | 0.26 | -0.43 | inactive |
| WRN | 1 | no change | no change | -1.25 | 2.7 | inactive |
| RIC1 | 1 | no change | no change | -0.22 | 0.13 | inactive |
| SFXN4 | 1 | no change | no change | -0.58 | 2.44 | inactive |
| SGSM2 | 1 | no change | no change | 2.23 | -0.44 | inactive |
| KIAA0408 | 1 | no change | no change | -0.01 | -0.16 | inactive |
| BDKRB1 | 1 | no change | no change | 0.78 | -0.32 | inactive |
| PSD4 | 1 | no change | no change | -0.54 | -1.38 | inactive |
| DRC8 | 1 | no change | no change | -0.18 | -0.03 | inactive |
| ALKBH4 | 1 | no change | no change | -1.03 | 1.02 | inactive |
| CLK2 | 1 | no change | no change | -0.09 | -0.42 | inactive |
| ZNF511 | 1 | no change | no change | 0.19 | -0.3 | inactive |
| DGKZ | 1 | no change | no change | 0.46 | -0.44 | inactive |
| ODAD3 | 1 | no change | no change | 1.21 | -0.58 | inactive |
| SIPA1 | 1 | no change | no change | 0.59 | -0.7 | inactive |
| RPL22 | 1 | no change | no change | -0.28 | 0.16 | inactive |
| VTA1 | 1 | no change | no change | -0.16 | -0.62 | inactive |
| ARL9 | 1 | no change | no change | 0.96 | 0.18 | inactive |
| TNFRSF4 | 1 | no change | no change | -1.75 | 0.68 | inactive |
| OIT3 | 1 | no change | no change | 0.86 | 0.15 | inactive |
| KLK11 | 1 | no change | no change | -0.46 | 0.1 | inactive |
| LGR4 | 1 | no change | no change | -0.86 | -0.2 | inactive |

Continued (10 carried over from the part before).
| gene | reagent | viability hit class | caspase hit class | viability robust z-score | caspase robust z-score | call |
| --- | --- | --- | --- | --- | --- | --- |
| DGKZ | 1 | no change | no change | 0.46 | -0.44 | inactive |
| ODAD3 | 1 | no change | no change | 1.21 | -0.58 | inactive |
| SIPA1 | 1 | no change | no change | 0.59 | -0.7 | inactive |
| RPL22 | 1 | no change | no change | -0.28 | 0.16 | inactive |
| VTA1 | 1 | no change | no change | -0.16 | -0.62 | inactive |
| ARL9 | 1 | no change | no change | 0.96 | 0.18 | inactive |
| TNFRSF4 | 1 | no change | no change | -1.75 | 0.68 | inactive |
| OIT3 | 1 | no change | no change | 0.86 | 0.15 | inactive |
| KLK11 | 1 | no change | no change | -0.46 | 0.1 | inactive |
| LGR4 | 1 | no change | no change | -0.86 | -0.2 | inactive |
| TAX1BP3 | 1 | no change | no change | 0.06 | -1.22 | inactive |
| MTFR1L | 1 | no change | no change | -2.09 | 0.62 | inactive |
| OR10S1 | 1 | no change | no change | -0.5 | 3.08 | inactive |
| CSGALNACT2 | 1 | no change | no change | 0.42 | -0.94 | inactive |
| DNAJB5 | 1 | no change | no change | -0.36 | 0.92 | inactive |
| SMAD5 | 1 | no change | no change | 1.94 | -0.5 | inactive |
| PSG11 | 1 | no change | no change | 0.22 | -1.04 | inactive |
| CCL23 | 1 | no change | no change | 0.49 | -0.12 | inactive |
| SPATA2L | 1 | no change | no change | -1.94 | 0 | inactive |
| PCDHB7 | 1 | no change | no change | 0.78 | -0.14 | inactive |
| C1GALT1 | 1 | no change | no change | 1.75 | -0.03 | inactive |
| MTRF1L | 1 | no change | no change | 1.52 | -0.52 | inactive |
| N4BP2 | 1 | no change | no change | 0.6 | -0.12 | inactive |
| CRYBB3 | 1 | no change | no change | -0.15 | -0.71 | inactive |
| MYO18A | 1 | no change | no change | 0.8 | 3.13 | inactive |
| MYO18A | 2 | no change | no change | -0.05 | -0.63 | inactive |
| PLK3 | 1 | no change | no change | -0.78 | 1.64 | inactive |
| KCTD8 | 1 | no change | no change | -0.18 | 3.55 | inactive |
| IL37 | 1 | no change | no change | -0.22 | 2.22 | inactive |
| EXTL1 | 1 | no change | no change | 1.31 | -0.48 | inactive |
| TMEM231 | 1 | no change | no change | -0.08 | 0.23 | inactive |
| FKBP6 | 1 | no change | no change | -0.72 | -0.76 | inactive |
| DKC1 | 1 | no change | no change | 0.26 | 0.66 | inactive |
| EXOC7 | 1 | no change | no change | -0.74 | -1.06 | inactive |
| VTI1B | 1 | no change | no change | 1.06 | -0.97 | inactive |
| KDM6A | 1 | no change | no change | 0 | 0.74 | inactive |
| FZD8 | 1 | no change | no change | 0.02 | 0.96 | inactive |
| CROT | 1 | no change | no change | -0.45 | -0.83 | inactive |
| CIMAP3 | 1 | no change | no change | -0.54 | -0.26 | inactive |
| RAPGEF4 | 1 | no change | no change | 1.42 | 0.03 | inactive |
| DIPK1A | 1 | no change | no change | 0.82 | -0.4 | inactive |
| ADAM15 | 1 | no change | no change | -0.43 | 1.25 | inactive |
| ATP5MG | 1 | no change | no change | -0.8 | -0.68 | inactive |
| ALOX5AP | 1 | no change | no change | 0.46 | 0.34 | inactive |
| OR4K14 | 1 | no change | no change | 0.11 | -0.24 | inactive |
| FLOT2 | 1 | no change | no change | 0.82 | -0.41 | inactive |
| DAB2 | 1 | no change | no change | -2.5 | 1.89 | inactive |
| DNAH2 | 1 | no change | no change | 1.04 | -0.48 | inactive |
| GDF15 | 1 | no change | no change | -0.7 | 2.53 | inactive |
| FBXO10 | 1 | no change | no change | -2.09 | 3.25 | inactive |
| GARIN6 | 1 | no change | no change | 1.02 | -1.02 | inactive |
| PLAA | 1 | no change | no change | -2.44 | -0.97 | inactive |
| GSR | 1 | no change | no change | -0.02 | 1.68 | inactive |
| ZNF197 | 1 | no change | no change | -0.74 | 0.93 | inactive |
